Laboratory results reported in PubChem BioAssay AID504847 (National Center for Advancing Translational Sciences (NCATS), 2011).
Values joined by “and” are separate entries in the source; they are usually repeats but may differ in a detail not shown here. Equal entries are not always repeated. Among all 400,000 compounds or so, about 3,700 (0.93%) were called active. Inconclusive means that the source gave no clear call. Such entries were picked first, then a sample of the others. Calls come from the whole dose curve; as a rule, active = well fitted inhibition curve with a large enough effect; inconclusive = small, poorly fitted or top-dose-only effect, or another doubt; inactive = no such curve, though single readings can be large or run the other way. Where the call is inconclusive, the potency comes from a doubtful curve fit.

Protein sequences, listed by entry. Tags and fused reporters are not part of them. Lines headed by an entry give the natural chain unless they say otherwise; changes in a name come on top.
UniProt P11473: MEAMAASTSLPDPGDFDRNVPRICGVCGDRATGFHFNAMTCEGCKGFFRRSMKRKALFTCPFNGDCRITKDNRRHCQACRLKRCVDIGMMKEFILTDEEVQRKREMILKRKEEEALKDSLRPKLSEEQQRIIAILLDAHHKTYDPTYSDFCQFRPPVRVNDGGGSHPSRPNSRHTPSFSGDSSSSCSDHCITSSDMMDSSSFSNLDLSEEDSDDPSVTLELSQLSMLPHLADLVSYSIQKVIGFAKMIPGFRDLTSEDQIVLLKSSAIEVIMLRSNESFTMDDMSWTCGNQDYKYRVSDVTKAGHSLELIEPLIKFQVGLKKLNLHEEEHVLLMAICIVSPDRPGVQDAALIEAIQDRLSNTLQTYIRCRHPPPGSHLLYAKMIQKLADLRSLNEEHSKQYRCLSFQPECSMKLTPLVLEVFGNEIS

target: Vitamin D3 receptor (Homo sapiens) (UniProt P11473); assay: Inhibitors of the vitamin D receptor (VDR): qHTS; details: VDR-SRC2-3 peptide fluorescence polarization, 2 h; max response, negative = inhibition: stronger effect = lower value
Procedure, shortened: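 Signal is fluorescence polarization, reporting how far test compounds block the interaction of VDR with the SRC2-3 coregulator peptide after a 2 h room-temperature incubation.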
% is set by controls: 0 for no effect and ±100 for the full control effect; potency is the fitted concentration of half-maximal effect.

SMILES | Potency | max response, negative = inhibition
Cc1ccc(CNC(=O)CCS(=O)(=O)c2cc3c(cc2Cl)NC(=O)CO3)cc1 | inconclusive: 39.8 µM [inhibitor, single point] | 
Cc1c(Cl)cccc1NC(=S)Nn1cnnc1 | active: 79.4 µM | 
S=c1[nH]nc(-c2cccc(Cl)c2)n1Cc1ccccc1 |  | inactive: -8.47%
CCOc1ccccc1CNS(=O)(=O)c1ccc2c(c1)C(C)(C)C(=O)N2C |  | inactive: 15.9% and inactive: -12.8%
Cc1ccc(S(=O)(=O)N2CCCC(C(=O)NCC(C)C)C2)cc1 (stereo unspecified) | inconclusive: 89.1 µM [inhibitor, partial curve, poor fit] | 
O=C(Nc1ccccc1)c1cccc(S(=O)(=O)Oc2ccc([N+](=O)[O-])cc2)c1 | inconclusive: 79.4 µM [inhibitor, partial curve, poor fit] | 
CC(O)[C@H]1CN=C(N)N1CC1CCCCC1 (stereo partly specified) | inconclusive: 89.1 µM [inhibitor, single point] | 
CC1(C)CC(=O)C/C(=N/Nc2nc3ccccc3s2)C1 | inconclusive: 79.4 µM [inhibitor, single point] | 
COC(=O)c1ccc(CN(C(C)=O)c2ccccc2)o1 | inconclusive: 35.5 µM [inhibitor, full curve, poor fit] | 
Fc1ccc(Sc2nc(-c3ccccc3)nnc2C(F)(F)F)cc1 | inconclusive: 10 µM [inhibitor, partial curve, poor fit] | 
CC(C)(C)NC[C@H](O)COc1cccc2c1CCCC2=O | inconclusive: 35.5 µM [inhibitor, partial curve, poor fit] | 
COc1ccc(NC(=O)N/C=C/c2ccc(Cl)cc2)cc1 |  | inactive: -11.9%
COc1cc(/C=C/C(=O)O)cc(S(=O)(=O)Nc2cc(Cl)c(Cl)cc2Cl)c1OC | inconclusive: 0.708 µM [inhibitor, full curve, poor fit] | 
O=C(/C=C/c1ccc(F)cc1)c1cc(Br)ccc1O | inconclusive: 63.1 µM [inhibitor, partial curve, poor fit] | 
c1ccc(C2NCCc3ccccc32)cc1 (stereo unspecified) | inconclusive: 89.1 µM [inhibitor, partial curve, poor fit] | 
CCOc1c(Br)cc(/C=C(\C#N)C(=O)NC2CC2)cc1OC | inconclusive: 56.2 µM [inhibitor, partial curve, poor fit] | 
COc1cc(O)cc(OC)c1OC | active: 44.7 µM | 
N#CC1=C(N)C(C#N)(C#N)[C@H](c2ccsc2)[C@H]2COCC=C12 | inconclusive: 79.4 µM [inhibitor, partial curve, poor fit] | 
COc1ccc(NS(=O)(=O)c2cccc(-c3n[nH]c(=S)n3Cc3ccccc3)c2)cc1 |  | inactive: -12.5%
CC(=O)N1CC=C2C(C#N)=C(N)C(C#N)(C#N)C(CCc3ccccc3)C2C1 (stereo unspecified) | inconclusive: 39.8 µM [inhibitor, single point] | 
CC1=NOC(=O)/C1=C\c1ccc(-c2ccc(Cl)cc2Cl)o1 | active: 22.4 µM | 
CC(CC(O)C1OC1(C)C)C1CCC2(C)C3=CCC4C(C)(C)C(=O)CCC4(C)C3CC[C@@]12C (stereo partly specified) | inconclusive: 89.1 µM [inhibitor, single point] | 

SMILES | Potency | max response, negative = inhibition
Cc1nc([N+](=O)[O-])c(Br)n1CC(=O)c1ccc(Cl)cc1 | inconclusive: 39.8 µM [inhibitor, full curve, poor fit] | 
Cc1nc(COC(=O)c2cc(O)c3ccccc3c2O)cs1 | inconclusive: 35.5 µM [inhibitor, single point] | 
Cc1cccc(N2CCN(C(=O)CCCn3c(=O)[nH]c4ccsc4c3=O)CC2)c1C | inconclusive: 50.1 µM [inhibitor, partial curve, poor fit] | 
CC1CC(=O)Nc2ccccc2N1C(=O)Nc1ccc(F)cc1F (stereo unspecified) | inconclusive: 89.1 µM [inhibitor, single point] | 
Nc1nc2c(nnn2Cc2ccc(Cl)c(Cl)c2)c(=O)[nH]1 | inconclusive: 89.1 µM [inhibitor, single point] | 
NNc1nc(Nc2ccccc2)nc(N2CCCCC2)n1 |  | inactive: -2.77%
COCc1cc(S(=O)c2ccc(Cl)cc2)nc(C)n1 (stereo unspecified) | active: 50.1 µM | 
CCC(Cc1ccccc1)NC(=O)CN(C)S(=O)(=O)c1ccc2c(c1)c(=O)n(C)c(=O)n2C (stereo unspecified) |  | inactive: -26.4%
CC(C)COc1ccc(-c2nnc(-c3ccncc3)o2)cc1 | inconclusive: 11.2 µM [inhibitor, partial curve, poor fit] | 
C[C@@]12C=Cc3occc3C1CC[C@@]13C[C@@H](CCC12)[C@@](O)(CO)C3 (stereo partly specified) | active: 39.8 µM | 
COc1cc(SC)ccc1C(=O)N1CCN(c2ccccc2OC)CC1 |  | inactive: -10.6%
O=C(Nc1cc(S(=O)(=O)N2CCOCC2)ccc1O)c1ccc2c(c1)S(=O)(=O)c1ccccc1C2=O | inconclusive: 70.8 µM [inhibitor, single point] | 
Cc1cc(S(=O)(=O)c2ccc([N+](=O)[O-])cn2)ccc1Br | inconclusive: 15.8 µM [inhibitor, full curve, poor fit] | 
Cc1ccc(S(=O)(=O)N2[C@@H](c3ccc(Br)cc3)C(C(=O)O)=CC[C@H]2c2ccc(C(C)C)cc2)cc1 | inconclusive: 79.4 µM [inhibitor, partial curve, poor fit] | 
O=C(O)Cn1nc(-c2ccccc2)cc1-c1ccccc1 | inconclusive: 89.1 µM [inhibitor, single point] | 
CCOC(=O)c1cc(-c2cccnc2)nn1-c1ccccc1C | inconclusive: 11.2 µM [inhibitor, partial curve, poor fit] | 
O=C(COC(=O)c1ccc([N+](=O)[O-])o1)Nc1cccc(S(=O)(=O)N2CCCCC2)c1 |  | inactive: -13%
CCOc1ccccc1N(CC(=O)Nc1ccccc1)S(=O)(=O)c1ccccc1 |  | inactive: 27.2%
COC(=O)c1ccccc1S(=O)(=O)C(C)(C)C | inconclusive: 35.5 µM [inhibitor, single point] | 
O=C(Nc1c(Cl)cccc1Cl)c1cccc2c1C(=O)N(C1CCCCC1)C2 |  | inactive: -17.1%
COc1ccc(C(=O)c2ncc(C(F)(F)F)cc2Cl)cc1 | inconclusive: 70.8 µM [inhibitor, partial curve, poor fit] | 
C=CCN(C(=O)C1=NN(C2CCS(=O)(=O)C2)C(=O)CC1)c1nc(-c2ccc([N+](=O)[O-])cc2)cs1 (stereo unspecified) | inconclusive: 89.1 µM [inhibitor, single point] | 

No new results follow: an excerpt of the list.
SMILES | Potency | max response, negative = inhibition
CC(C)(C)NC[C@H](O)COc1cccc2c1CCCC2=O | inconclusive: 35.5 µM [inhibitor, partial curve, poor fit] | 
COc1ccc(NC(=O)N/C=C/c2ccc(Cl)cc2)cc1 |  | inactive: -11.9%
COc1cc(/C=C/C(=O)O)cc(S(=O)(=O)Nc2cc(Cl)c(Cl)cc2Cl)c1OC | inconclusive: 0.708 µM [inhibitor, full curve, poor fit] | 
O=C(/C=C/c1ccc(F)cc1)c1cc(Br)ccc1O | inconclusive: 63.1 µM [inhibitor, partial curve, poor fit] | 
c1ccc(C2NCCc3ccccc32)cc1 (stereo unspecified) | inconclusive: 89.1 µM [inhibitor, partial curve, poor fit] | 

More records.

SMILES | Potency | max response, negative = inhibition
Cc1cccc(N(Cc2ccccc2)C(=O)CSC(C)C(=O)Nc2cc(C)on2)c1 (stereo unspecified) | inconclusive: 89.1 µM [inhibitor, single point] | 
CCCn1c(COc2ccccc2)nc2ccccc21 | inconclusive: 35.5 µM [inhibitor, partial curve, poor fit] | 
O=C(NC(=S)Nc1ccccc1N1CCCC1)c1ccc(-c2cccc([N+](=O)[O-])c2)o1 |  | inactive: -15.2%
CN(C)S(=O)(=O)c1ccc(NC(=S)NC(=O)Cc2ccccc2)cc1 | inconclusive: 100 µM [inhibitor, partial curve, poor fit] | 
O=C(CCl)N=c1sccn1Cc1ccc(Cl)cc1Cl |  | inactive: -9.09%
COCCCNC(=O)/C(C#N)=C/c1cccc(NC(=O)c2ccccc2Cl)c1 | inconclusive: 70.8 µM [inhibitor, single point] | 
C=C1CC(COc2cc(=O)oc3ccccc23)(c2ccccc2)OC1=O (stereo unspecified) | inconclusive: 89.1 µM [inhibitor, partial curve, poor fit] | 
CCc1cccc(C)c1NC(=O)COC(=O)c1c2c(nc3ccccc13)/C(=C\c1cccs1)CCC2 |  | inactive: -0.277%
COc1cc(/C=N/n2c(C3CCCCC3)n[nH]c2=S)cc(OC)c1O |  | inactive: -12.2%
O=C(Nc1ccc(Cl)c(C(F)(F)F)c1)C(=O)N1CCCCC1 | inconclusive: 79.4 µM [inhibitor, single point] | 
O=C(CSc1ccc(Cl)cc1)c1ccco1 | inconclusive: 70.8 µM [inhibitor, partial curve, poor fit] | 
Cc1ccc(CC(=O)NNC(=O)c2ccncc2)cc1C | active: 79.4 µM | 
COc1ccc(/C=C2\SC(=S)N(C(C(=O)O)c3ccccc3)C2=O)c(OC)c1 (stereo unspecified) | inconclusive: 89.1 µM [inhibitor, single point] | 
N#Cc1cccc2c1-c1ccccc1/C2=N/NC(N)=O |  | inactive: 5.73%
CCC(C)C1/C=C\CCCC(=O)N1Cc1ccc(C)cc1 (stereo unspecified) | inconclusive: 126 µM [inhibitor, partial curve] | 
COc1ccc(Br)c2c1-c1nc(NC(=O)c3ccccc3SC)sc1C2 | inconclusive: 44.7 µM [inhibitor, partial curve, poor fit] | 
COc1ccc(NC(=O)c2c(NCc3ccc(C)o3)sc3c2CCC(C)C3)cc1 (stereo unspecified) | inconclusive: 15.8 µM [inhibitor, single point] | 
CCOC(=O)c1ccc(NC(=O)c2nc(S(=O)(=O)Cc3ccccc3)ncc2Cl)cc1 | active: 20 µM and active: 31.6 µM | 
Cc1nn(CCCC(=O)NCc2ccccc2)c(=O)c2c1sc1ccccc12 |  | inactive: 2.09%
COc1ccc(CN(C)CCCn2cnc3c(OCc4ccccc4)ncnc32)cc1 |  | inactive: -0.185%
O=C1NN(c2ccc(Cl)c(Cl)c2)C(=O)/C1=C/c1ccc(-c2ccccc2C(=O)O)o1 | active: 44.7 µM | 
N#C/C(=N/Nc1ccccc1[N+](=O)[O-])C(N)=S | inconclusive: 70.8 µM [inhibitor, single point] | 
